# Out of some 360,000 compounds screened, about 7,500 (2.1%) were called active. Inconclusive means that the source gave no clear call. Such entries were picked first, then a sample of the others. Calls follow the shape of the dose curve; as a rule, active = well fitted inhibition curve with a large enough effect; inconclusive = small, poorly fitted or top-dose-only effect, or effect the other way; inactive = flat fitted curve, though single readings scatter. Where the call is inconclusive, the potency comes from a doubtful curve fit.
# Test: Nrf2 qHTS screen for inhibitors; also: nearly all actives have a fitted effect of over 60% in size
# Conditions: A549 ARE-Fluc reporter, luciferase luminescence, 18-24 h; activity change, negative = inhibition: at 46 µM (top of the series)
# Summary of the method: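 Reporter: ARE-Fluc in A549. Exposure: 18-24 h, 37 °C, 5% CO2, 5% FBS OPTI-MEM. Readouts: fluorescent cytotoxicity (CellTiter-Fluor), then luminescent Nrf2 signal after BugLite.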
# % is scaled to controls: 0 for no effect and ±100 for the full control effect; potency is read from the fitted curve at half-maximal effect.
Compound,Potency,"activity change, negative = inhibition"
COc1cccc([C@@H]2CC=C(C(=O)O)[C@H](c3ccc(F)cc3)N2S(=O)(=O)c2ccc(C)cc2)c1,"inconclusive: 29.1 µM [falling, single point]",–
Cn1c(SCC(=O)N2CCN(c3ccccc3)CC2)nnc1-c1c[nH]c2ccccc12,"inconclusive: 18.4 µM [falling, single point]",–
CCOC(=O)/C(C#N)=C\c1cccnc1,"inconclusive: 4.61 µM [activator, full curve, poor fit]",–
CCOc1ccc2nc(NC(=O)CSc3nc(SC)ns3)sc2c1,"inconclusive: 6.51 µM [activator, full curve]",–
Cc1cc2nc(-c3cccc(NC(=O)COc4ccc(Cl)c(C)c4)c3)oc2cc1C,"inconclusive: 10.3 µM [activator, partial curve]",–
Cc1ccc(Nc2nc(NCCO)c3ccccc3n2)cc1C,"inconclusive: 2.31 µM [activator, full curve]",–
O=S(=O)(O)c1cc(O)c2ccc(Nc3ccccc3)cc2c1,–,inactive: -5.53%
CC(C)(C)c1nnc(NC(=O)COc2ccc3c(c2)OCO3)s1,"inconclusive: 3.26 µM [activator, full curve]",–
O=C(Nc1cccc2ncccc12)c1ccc(Br)c([N+](=O)[O-])c1,"inconclusive: 32.6 µM [activator, partial curve, poor fit]",–
CN(Cc1cnn(Cc2ccccc2)c1)C(=O)c1cccc(S(=O)(=O)N2CCOCC2)c1,–,inactive: -11.3%
Clc1ccc(-c2csc(Nc3ccccc3)[n+]2Cc2ccco2)c(Cl)c1,"inconclusive: 6.51 µM [activator, single point]",–
Cc1ccc(-c2nc(NCc3ccc(F)cc3)n(S(C)(=O)=O)n2)cc1,"inconclusive: 23.1 µM [activator, partial curve]",–
CC(O)CSc1nc2c(c(=O)[nH]c(=O)n2C)n1Cc1ccccc1Cl (stereo not drawn),"inconclusive: 32.6 µM [falling, partial curve, poor fit]",–
O=C(CNc1cccc(S(=O)(=O)N2CCCC2)c1)Nc1cccc(Br)c1,active: 20.6 µM,–
N/C(=N\OC(=O)Cc1ccc(-c2ccccc2)cc1)c1ccccn1,"inconclusive: 29.1 µM [activator, single point]",–
O=C1C(=O)N(CCN2CCOCC2)C(c2ccccn2)/C1=C(/O)c1ccccc1 (stereo not drawn),–,inactive: -3.2%
COc1ccc(C2C(C(=O)NCc3cccnc3)c3ccccc3C(=O)N2C)cc1OC (stereo not drawn),"inconclusive: 13 µM [activator, partial curve, poor fit]",–
Cc1cc(NC(=O)c2ccc([N+](=O)[O-])cc2)n(C)n1,–,inactive: 2.25%
CC(=O)Nc1ccc(-c2csc(-c3cccnc3)n2)cc1,"inconclusive: 1.46 µM [activator, full curve]",–
COc1ccc(C2=Nn3c(nnc3-c3cccnc3)SC2)cc1,–,inactive: -8.34%
COc1ccccc1/C=C/C(=O)Nc1ccc2c(c1)CCC2,"inconclusive: 20.6 µM [activator, partial curve]",–
CCn1c(C)nc2cc(C(=O)NNC(=S)Nc3ccccc3Cl)ccc21,–,inactive: -7.92%
COc1ccc(C2=CC(c3ccc(Cl)cc3)n3cnnc3N2)cc1OC (stereo not drawn),"inconclusive: 2.06 µM [activator, partial curve, poor fit]",–

# Reprinted at random: six entries already listed, in no set order.
Compound,Potency,"activity change, negative = inhibition"
Cc1cc(NC(=O)c2ccc([N+](=O)[O-])cc2)n(C)n1,–,inactive: 2.25%
Cc1cc2nc(-c3cccc(NC(=O)COc4ccc(Cl)c(C)c4)c3)oc2cc1C,"inconclusive: 10.3 µM [activator, partial curve]",–
O=S(=O)(O)c1cc(O)c2ccc(Nc3ccccc3)cc2c1,–,inactive: -5.53%
O=C(Nc1cccc2ncccc12)c1ccc(Br)c([N+](=O)[O-])c1,"inconclusive: 32.6 µM [activator, partial curve, poor fit]",–
CCn1c(C)nc2cc(C(=O)NNC(=S)Nc3ccccc3Cl)ccc21,–,inactive: -7.92%
COc1ccc(C2=Nn3c(nnc3-c3cccnc3)SC2)cc1,–,inactive: -8.34%

# (more compounds)

Compound,Potency,"activity change, negative = inhibition"
CC(CNCCCn1ccc(NC(=O)OCc2ccccc2)nc1=O)c1ccccc1 (stereo not drawn),–,inactive: 5.06%
COC(=O)C1=C(c2ccccc2)c2ccccc2S(=O)(=O)N1CC(=O)Nc1ccc(OC)cc1OC,–,inactive: 1.39%
CN=C1NN=C(c2cc(C)n(-c3c(C)n(C)n(-c4ccccc4)c3=O)c2C)CS1,–,inactive: 17.3%
O=C(Oc1csc(=S)n1C(=O)c1ccccc1)c1ccccc1,–,inactive: -16.8%
COc1cc(C(=O)Nc2cc(C)ccn2)ccc1OCC(=O)N1CCOCC1,"inconclusive: 29.1 µM [activator, partial curve, poor fit]",–
O=[N+]([O-])c1cc(-c2n(-c3ccccn3)c3ccccc3[n+]2-c2ccccn2)ccc1Cl,–,inactive: 13.6%
Cc1ccc(N2C(=O)CC(Sc3ccccc3C(=O)O)C2=O)cc1C (stereo not drawn),"inconclusive: 0.92 µM [falling, full curve, poor fit]",–
O=C(NCC1CCCN1S(=O)(=O)c1cccs1)c1c(F)cccc1F (stereo not drawn),"inconclusive: 5.17 µM [falling, full curve, poor fit]",–
CN(C)c1ccc(/C=N/n2c(COc3ccccc3)n[nH]c2=S)cc1,"inconclusive: 0.13 µM [activator, full curve, poor fit]",–
CC1=C(C(=O)Nc2ccc(F)cc2F)C2(CCCCCC2)OC1=O,"inconclusive: 29.1 µM [activator, single point]",–
O=C(Cn1cnc2c(cnn2-c2ccc(F)cc2)c1=O)N1CCCc2ccccc21,"inconclusive: 16.4 µM [falling, single point]",–
CCOc1ccc(CCNc2nc3ccc(C)cc3n3cnnc23)cc1OCC,"inconclusive: 14.6 µM [falling, single point]",–
CCOC(=O)c1ccc(N2C(=O)c3n[nH]c(-c4ccco4)c3C2c2ccc(F)cc2)cc1 (stereo not drawn),"inconclusive: 25.9 µM [falling, single point]",–
Cc1ccc(-c2csc3n[nH]c(=S)n23)cc1,"inconclusive: 20.6 µM [activator, single point]",–
O=C(Cc1csc(NC(=O)Nc2ccc(Cl)cc2)n1)NC1CCCC1,"inconclusive: 20.6 µM [falling, single point]",–
COc1ccc(-c2nnc3n2N=C(c2ccc(OC)c(OC)c2)CS3)c(OC)c1,"inconclusive: 0.58 µM [activator, full curve, poor fit]",–
Cc1nc(C(=O)Nc2cccc(Cl)c2)nn1-c1cc(OC(C)C)c(Cl)cc1Cl,"inconclusive: 20.6 µM [falling, single point]",–
Cc1cc(C)n2nc(SCCC(=O)NCCc3ccccc3)nc2n1,–,inactive: -8.49%
COC(=O)Cn1c(=NC(=O)c2sc3ccccc3c2Cl)sc2cc(S(N)(=O)=O)ccc21,"inconclusive: 0.231 µM [falling, full curve, poor fit]",–
COc1ccc(C2C3=C(N=C4SCC(=O)N42)c2ccccc2CC3)cc1OC (stereo not drawn),"inconclusive: 23.1 µM [falling, single point]",–
COc1ccc(-c2csc(N(CC3CCCO3)C(=O)c3ccc(C)cc3)n2)cc1 (stereo not drawn),"inconclusive: 29.1 µM [falling, single point]",–
CN(CC(=O)Nc1ccc(OC(F)(F)F)cc1)C(=O)/C=C/c1cc2c(cc1[N+](=O)[O-])OCO2,"inconclusive: 29.1 µM [falling, single point]",–
CC(C)OCc1cc(CN2CCN(c3ccccc3)CC2)c(O)c2ncccc12,–,inactive: -18%

Compound,Potency,"activity change, negative = inhibition"
CCn1cc(C(=O)O)c(=O)c2cc(F)c(N3CCN(C(=S)NC(=O)c4ccc(F)cc4)CC3)cc21,"inconclusive: 23.1 µM [falling, single point]",–
COc1ccc(-c2cc(C(F)(F)F)nc(SCC(=O)NCc3ccc(Cl)cc3)n2)cc1,–,inactive: 11.8%
Cc1c2cnn(-c3ccccc3)c(=O)c2c(C)n1C(C)C(=O)NCc1cccc(Br)c1 (stereo not drawn),"inconclusive: 16.4 µM [falling, single point]",–
Cc1ccc(S(=O)(=O)NCC(=O)OCC(=O)Nc2cccc(S(=O)(=O)NC3=NCCCCC3)c2)cc1,–,inactive: 0.624%
O=C(NNC(=O)C12CC3CC(CC(C3)C1)C2)c1ccccn1,active: 20.6 µM,–
O=C1c2cccc3cccc(c23)C(=O)N1c1ccccn1,–,inactive: -8.55%
CC(NC(=O)Nc1cccc([N+](=O)[O-])c1)c1ccc2c(c1)OCO2 (stereo not drawn),"inconclusive: 29.1 µM [falling, single point]",–
CCC(C)C(=O)Nc1nc(C)c(-c2csc(Nc3cc(Cl)ccc3OC)n2)s1 (stereo not drawn),active: 8.2 µM,–
COC(=O)C1CCCCN1C(=O)c1ccc2oc(Cc3ccccc3)nc2c1 (stereo not drawn),"inconclusive: 0.13 µM [activator, full curve, poor fit]",–
CCN(C(=O)CC(C)C)c1nnc(Cn2nnc3ccccc32)s1,"inconclusive: 16.4 µM [falling, single point]",–
O=c1c2ccccc2nc2ccc(NCc3cccs3)nn12,"inconclusive: 5.17 µM [activator, full curve]",–
O=C(Nc1ccc(CN2CCOCC2)cc1)c1ccc2ccccc2c1,"inconclusive: 0.326 µM [activator, full curve, poor fit]",–
Cc1c(C(=O)N2CCOCC2)oc2ccc(S(=O)(=O)N3CCCCCC3)cc12,"inconclusive: 2.59 µM [falling, full curve]",–
Cc1ccc(NC(=O)CC(=O)Nc2ccc(C)cc2C)c(C)c1,–,inactive: 14.4%
COc1ccc(COC[C@H](C)[C@H](O)[C@@H](C)[C@H]2OC(=O)[C@@H]2C)cc1,inactive,–
CCCN(CCC)C(=O)c1nn(C)c2c1CSc1ccccc1-2,–,inactive: 25.9%
COc1ccc(-n2nnnc2SCC(=O)NCCc2ccc(OC)c(OC)c2)cc1,"inconclusive: 7.31 µM [falling, single point]",–
COc1ccc(CCNC(=O)CSc2ccc(-c3cccs3)nn2)cc1OC,"inconclusive: 1.46 µM [falling, partial curve, poor fit]",–
CCOC(=O)c1ccc(S(=O)(=O)N2CCN(C)CC2)cc1,"inconclusive: 5.17 µM [falling, single point]",–
CC(C)C(=O)Nc1cccc(C(=O)Nc2nnc(C(F)(F)F)s2)c1,–,inactive: 4.6%
CCOc1ccc(-c2nc(CN3CCCC(C(=O)N4CCOCC4)C3)c(C)o2)cc1 (stereo not drawn),"inconclusive: 14.6 µM [activator, partial curve, poor fit]",–
CC(=O)Nc1cccc(Nc2nc(-c3cccs3)nc3ccccc23)c1,"inconclusive: 2.91 µM [falling, full curve, poor fit]",–

# — PubChem BioAssay AID504444 (National Center for Advancing Translational Sciences (NCATS), 2011)
